The text below walks through data of patent publication EP4674859A1 (dated 2024).

This data set in a line: general procedure: Fmoc solid-phase peptide synthesis; 2-chlorotrityl resin. To be noted: late stage modification step.

“(2-(4-(6-methyl-1,2,4,5-tetrazin-3-yl)phenyl)acetyl)glycylglycyl-L-serylglycylglycylglycyl-L-serylglycylglycylglycyl-L-seryl-L-aspartylglycyl-L-leucyl-L-histidine” returned a step yield of 71%.
